This is an account of results in paper PMC12722469.

The data set deals with MBP-OUR1/OsbZIP1-DB (Oryza sativa). The data set is described as follows: EMSA. As to conditions: 0.4-0.8 uM protein, 25.3 nM probe, PBS(-), 1 mM 2-mercaptoethanol, 4 C 30 min, pH not stated, recombinant protein, protein details: MBP (pMAL-c2), label: Cy5 on reverse strand (5' of Klenow primer S87).

For at least one entry, the source does not settle the construct or the ends of the probe. Weaker means in comparison with the reference protein, sequence or condition of that experiment.

Turning to “CTTGGCCGCTAGCTACGGAAGCGTAACATGGACATGACGTTCATCGTCGTAACACTGTAC (double strand) [OsPIN9-OUR1cis_mutated]”, the binding result (binding markedly reduced, 6% PAGE in 0.5x TBE at 4 C) is “binds more weakly”. For the sequence “CTTGGCCGCTAGCTACGGAAGCGTACACGTTCACGTACGTTCATCGTCGTAACACTGTAC (double strand) [OsPIN9-OUR1cis]”, where the note is “clear shifts at 0.6 and 0.8 uM protein, 6% PAGE in 0.5x TBE at …”, the binding result is given as “binds”.
